Data as given in PubChem BioAssay AID504764 (Drosophila RNAi Screening Center, 2011)

Screen: 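Knock-downs that raise or lower a Notch target reporter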 (primary screen)
System: Drosophila Kc167 cells
Reagents: long dsRNA against Drosophila genes
Timing: about 5 days (4 days dsRNA, then 24 h after transfection)
Challenge: transfection of constitutively active membrane-tethered Notch lacking the extracellular domain, read 24 h later
Read-out: 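Light from a Notch-responsive E(spl)m3 luciferase reporter under active Notch, with control-promoter and no-Notch reporter wells to normalise; raw counts from paired wells a and b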
Scale: induced reporter light, run 1, well a and induced reporter light, run 1, well b: higher = more light from the Notch target reporter with active Notch; control promoter light, run 1, well a and control promoter light, run 1, well b: higher = more light from the viral control promoter (cell number, transfection, viability); uninduced reporter light, run 1, well a: higher = more light from the Notch target reporter without active Notch
Call rule: 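Hit if the duplicate-averaged log2 ratio of induced to control-promoter light gives a plate-wise z beyond ±2, or induced to uninduced beyond ±1.8; weak-control or discordant-duplicate wells dropped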
Meaning of the calls: active = modifier hit (raised or lowered Notch signal); inactive = not a hit
The screen tested about 22,000 reagents; shown is a random part of those with a known target gene and a result. Over the whole deposit, 403 (1.9%) were called active. 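Unnormalised raw counts per well; ratio z-scores behind the hit calls and whether each hit raises or lowers signal are not deposited.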 Unmarked entries are inactive. Not stated in the record: the amount of reagent.

induced reporter light, run 1, well a | induced reporter light, run 1, well b | control promoter light, run 1, well a | control promoter light, run 1, well b | uninduced reporter light, run 1, well a | target gene | amplicon
2.75e5 | 2.53e5 | 2.63e5 | 2.87e5 | 19845 | snk (snake) | DRSC17060
1.08e5 | 96545 | 1.95e5 | 1.85e5 | 7960 | TRAM | DRSC18178
1.31e5 | 1.35e5 | 2.26e5 | 2.42e5 | 8992 | TRAM | DRSC18651
1.75e5 | 1.84e5 | 1.94e5 | 1.86e5 | 13775 | CG11298 | DRSC04100
2.03e5 | 1.59e5 | 1.97e5 | 1.87e5 | 15160 | GluRIID (Glutamate receptor IID) | DRSC16723
72840 | 62540 | 75405 | 69470 | 5420 | RabX2 | DRSC18234
1.79e5 | 1.39e5 | 2.07e5 | 2.09e5 | 14585 | CG14518 | DRSC14870
1.01e5 | 1.22e5 | 59530 | 70235 | 13692 | CG3841 | DRSC02730
1.53e5 | 1.35e5 | 1.70e5 | 1.25e5 | 10870 | Cpr78E (Cuticular protein 78E) | DRSC11807
81690 | 65975 | 60915 | 38840 | 5540 | Nemp (Nuclear envelope integral membrane protein) | DRSC20206
65735 | 61520 | 88165 | 72395 | 10015 | CG31459 | DRSC13380
1.35e5 | 1.35e5 | 2.38e5 | 3.11e5 | 11075 | Cp36 (Chorion protein 36) | DRSC18452
70740 | 73675 | 1.29e5 | 99585 | 7100 | w (white) | DRSC17233
1.22e5 | 1.28e5 | 2.30e5 | 1.77e5 | 8720 | w (white) | DRSC18850
55835 | 44175 | 44245 | 66620 | 2930 | CG10505 | DRSC04075
1.55e5 | 1.35e5 | 74955 | 80905 | 9265 | lap (like-AP180) | DRSC12628
1.66e5 | 1.62e5 | 1.98e5 | 1.62e5 | 10175 | Eig71Ek | DRSC11158
99000 | 96945 | 1.24e5 | 1.13e5 | 8490 | iotaTry (iotaTrypsin) | DRSC07634
66760 | 74090 | 64690 | 48855 | 5780 | CG9396 | DRSC16487
68940 | 66050 | 80675 | 68355 | 6160 | CG33223 | DRSC17572
80585 | 1.05e5 | 78550 | 83270 | 6228 | Nepl5 (Neprilysin-like 5) | DRSC03241
1.32e5 | 1.31e5 | 1.35e5 | 1.51e5 | 10150 | Tim17b2 (Translocase inner membrane 17) | DRSC03457
1.78e5 | 1.49e5 | 1.45e5 | 1.10e5 | 10985 | stas (Stasimon) | DRSC20104
50520 | 46720 | 40705 | 35295 | 2560 | CG31441 | DRSC15723
1.01e5 | 88315 | 83320 | 1.06e5 | 4370 | Nup93-1 (Nucleoporin 93kD-1) | DRSC19344
1.35e5 | 1.19e5 | 2.09e5 | 2.19e5 | 9530 | CG14053 | DRSC17908
1.27e5 | 1.22e5 | 2.32e5 | 2.02e5 | 14138 | grass (Gram-positive Specific Serine protease) | DRSC15911
1.72e5 | 2.27e5 | 2.16e5 | 2.23e5 | 19110 | ex (expanded) | DRSC00817
99160 | 1.09e5 | 95210 | 88680 | 9965 | CG42680 | DRSC01399
93175 | 98655 | 55620 | 24625 | 10640 | CG14823 | DRSC10194
1.64e5 | 1.67e5 | 2.55e5 | 2.19e5 | 15165 | alc (alicorn) | DRSC07062
40800 | 33030 | 31535 | 34600 | 2875 | CAH15 (Carbonic anhydrase 15) | DRSC04534
1.71e5 | 1.73e5 | 2.18e5 | 1.70e5 | 14655 | CG2065 | DRSC06813

Records above whose gene name begins with T or t (3):
induced reporter light, run 1, well a | induced reporter light, run 1, well b | control promoter light, run 1, well a | control promoter light, run 1, well b | uninduced reporter light, run 1, well a | target gene | amplicon
1.08e5 | 96545 | 1.95e5 | 1.85e5 | 7960 | TRAM | DRSC18178
1.31e5 | 1.35e5 | 2.26e5 | 2.42e5 | 8992 | TRAM | DRSC18651
1.32e5 | 1.31e5 | 1.35e5 | 1.51e5 | 10150 | Tim17b2 (Translocase inner membrane 17) | DRSC03457

Further reagents follow.
induced reporter light, run 1, well a | induced reporter light, run 1, well b | control promoter light, run 1, well a | control promoter light, run 1, well b | uninduced reporter light, run 1, well a | target gene | amplicon
2.18e5 (active) | 1.99e5 | 2.80e5 | 2.36e5 | 18800 | crol (crooked legs) | DRSC03514
1.84e5 | 1.65e5 | 2.03e5 | 1.77e5 | 12455 | tHMG1 (testis-enriched HMG-box-containing protein 1) | DRSC16181
1.40e5 | 1.66e5 | 1.95e5 | 1.83e5 | 11640 | WRNexo (WRN exonuclease) | DRSC16278
1.52e5 | 1.72e5 | 1.96e5 | 2.12e5 | 11592 | DZIP1 | DRSC14620
1.33e5 | 1.29e5 | 2.39e5 | 2.23e5 | 10432 | CG32086 | DRSC10586
1.43e5 | 1.71e5 | 1.04e5 | 77090 | 14005 | Ist1 | DRSC09697
1.34e5 | 1.56e5 | 1.68e5 | 1.56e5 | 14505 | TFAM (mitochondrial transcription factor A) | DRSC15552
84885 | 1.04e5 | 68155 | 51080 | 10850 | baz (bazooka) | DRSC20309
1.63e5 | 1.78e5 | 2.34e5 | 2.45e5 | 12055 | Obsc (Obscurin) | DRSC04301
1.84e5 | 1.47e5 | 1.45e5 | 1.49e5 | 13580 | Obsc (Obscurin) | DRSC04302
1.98e5 | 1.75e5 | 1.59e5 | 1.64e5 | 14470 | Obsc (Obscurin) | DRSC04303
1.44e5 | 1.51e5 | 1.49e5 | 1.54e5 | 11050 | Obsc (Obscurin) | DRSC04430
1.28e5 | 1.50e5 | 70265 | 87365 | 19640 | CG13144 | DRSC02241
26615 | 28700 | 13700 | 11405 | 2835 | Rpn5 (Regulatory particle non-ATPase 5) | DRSC12367
1.66e5 | 1.31e5 | 1.04e5 | 86095 | 11550 | alpha-Est1 (alpha-Esterase-1) | DRSC12612
3.02e5 | 2.72e5 | 2.25e5 | 2.23e5 | 19775 | yellow-e3 | DRSC15170
1.89e5 | 1.69e5 | 2.74e5 | 3.20e5 | 12465 | l(1)G0020 (lethal (1) G0020) | DRSC18198
96485 | 1.20e5 | 1.35e5 | 1.04e5 | 9995 | CG6209 | DRSC06968
2.32e5 | 1.87e5 | 2.29e5 | 2.47e5 | 14755 | GstT2 (Glutathione S transferase T2) | DRSC06244
2.04e5 | 1.81e5 | 1.77e5 | 1.89e5 | 14810 | yellow-d | DRSC04589
1.84e5 | 2.51e5 | 1.84e5 | 2.24e5 | 17785 | HemK1 (HemK methyltransferase 1) | DRSC03253
1.77e5 | 1.96e5 | 1.87e5 | 2.13e5 | 13390 | Uck (Uridine-cytidine kinase) | DRSC13661
1.52e5 | 1.38e5 | 1.80e5 | 1.87e5 | 12580 | Uck (Uridine-cytidine kinase) | DRSC16028
1.56e5 | 1.83e5 | 1.42e5 | 1.75e5 | 15865 | l(2)dtl (lethal-(2)-denticleless) | DRSC04697
35255 | 29580 | 67235 | 71875 | 4555 | CG11695 | DRSC19416
1.51e5 | 1.86e5 | 99820 | 90385 | 9815 | CG17233 | DRSC10259
1.12e5 (active) | 88260 | 60930 | 62530 | 8155 | hui (hase und igel) | DRSC05977
1.01e5 | 77560 | 1.39e5 | 94625 | 7450 | Obp56c (Odorant-binding protein 56c) | DRSC06552
21030 | 21315 | 18175 | 18465 | 4255 | CG5445 | DRSC19943
1.13e5 | 1.26e5 | 1.58e5 | 1.44e5 | 10405 | CG16956 | DRSC02544
1.15e5 | 99150 | 1.98e5 | 1.93e5 | 9532 | Khc-73 (Kinesin heavy chain 73) | DRSC07449
